Experimental findings from paper doi:10.1101/433045 (bioRxiv, 2020) are described below.

Amino acid sequences for entries named in this document (tags omitted). A change or cut given only in a name is not applied to a line headed by its entry.
UniProt P04050, whole entry: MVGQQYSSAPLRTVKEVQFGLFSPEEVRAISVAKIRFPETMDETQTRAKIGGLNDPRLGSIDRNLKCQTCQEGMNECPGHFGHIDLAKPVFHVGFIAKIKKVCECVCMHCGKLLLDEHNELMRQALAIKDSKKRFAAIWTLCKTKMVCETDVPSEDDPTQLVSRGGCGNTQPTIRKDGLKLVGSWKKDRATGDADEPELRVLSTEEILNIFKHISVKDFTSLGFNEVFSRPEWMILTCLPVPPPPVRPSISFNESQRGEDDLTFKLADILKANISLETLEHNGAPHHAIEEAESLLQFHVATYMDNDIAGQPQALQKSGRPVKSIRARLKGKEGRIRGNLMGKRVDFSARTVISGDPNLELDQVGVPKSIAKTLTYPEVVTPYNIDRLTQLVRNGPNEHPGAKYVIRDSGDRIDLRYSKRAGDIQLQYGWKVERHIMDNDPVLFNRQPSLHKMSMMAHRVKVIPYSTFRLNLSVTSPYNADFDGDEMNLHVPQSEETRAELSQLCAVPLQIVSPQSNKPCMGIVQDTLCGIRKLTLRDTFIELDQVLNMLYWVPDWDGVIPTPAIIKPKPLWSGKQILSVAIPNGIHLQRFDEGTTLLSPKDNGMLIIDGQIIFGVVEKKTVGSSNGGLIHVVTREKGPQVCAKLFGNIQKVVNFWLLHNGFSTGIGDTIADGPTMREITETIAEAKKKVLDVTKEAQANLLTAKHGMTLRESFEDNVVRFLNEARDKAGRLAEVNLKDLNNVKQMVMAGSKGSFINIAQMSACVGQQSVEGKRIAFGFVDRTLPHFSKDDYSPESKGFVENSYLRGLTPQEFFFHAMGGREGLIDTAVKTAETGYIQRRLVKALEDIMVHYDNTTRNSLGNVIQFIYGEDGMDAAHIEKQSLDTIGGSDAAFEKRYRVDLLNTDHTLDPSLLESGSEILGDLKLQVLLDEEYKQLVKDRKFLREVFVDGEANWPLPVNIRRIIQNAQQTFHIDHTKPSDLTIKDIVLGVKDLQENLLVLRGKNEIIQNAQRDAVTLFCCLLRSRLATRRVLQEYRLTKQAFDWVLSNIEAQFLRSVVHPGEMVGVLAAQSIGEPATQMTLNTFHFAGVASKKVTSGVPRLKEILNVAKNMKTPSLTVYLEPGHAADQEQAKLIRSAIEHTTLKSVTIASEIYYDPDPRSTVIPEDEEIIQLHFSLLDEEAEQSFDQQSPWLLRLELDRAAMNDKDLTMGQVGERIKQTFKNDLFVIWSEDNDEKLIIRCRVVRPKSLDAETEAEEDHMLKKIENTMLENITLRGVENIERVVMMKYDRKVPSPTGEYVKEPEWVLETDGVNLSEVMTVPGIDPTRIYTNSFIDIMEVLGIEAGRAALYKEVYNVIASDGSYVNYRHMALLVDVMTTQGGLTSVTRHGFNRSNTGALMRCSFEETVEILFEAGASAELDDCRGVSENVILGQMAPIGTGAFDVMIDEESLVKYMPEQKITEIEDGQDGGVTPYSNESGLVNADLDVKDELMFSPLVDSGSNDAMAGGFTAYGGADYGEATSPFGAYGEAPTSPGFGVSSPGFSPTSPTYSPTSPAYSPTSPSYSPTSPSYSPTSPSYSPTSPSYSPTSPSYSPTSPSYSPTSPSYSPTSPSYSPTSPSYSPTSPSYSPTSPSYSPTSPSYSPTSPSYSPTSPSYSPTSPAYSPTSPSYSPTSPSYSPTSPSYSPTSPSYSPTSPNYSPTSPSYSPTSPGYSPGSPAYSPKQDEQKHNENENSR

These are yes or no findings as the source states them, for the method shown. In cells and extracts the contact can be indirect. Some entries that bind do so weakly or less than the wild type.

What all share (assay): co-IP
One assay concerns the target TAP-Sen1 (S. cerevisiae) (UniProt Q00416).
Assay [1] addresses TAP-Sen1ΔNter (S. cerevisiae) (UniProt Q00416).
For assay [2], the target named is HA-tagged Sen1 (wt) (S. cerevisiae) (UniProt Q00416).

Turning to “RNAPII with unphosphorylated CTD (Rpb1) (from UniProt P04050 1-1733)”, the binding entry (in the assay with TAP-Sen1 (S. cerevisiae); in assay [1]) was “binds” throughout.

B1: Nrd1 (protein, UniProt P53617 1-575)
chain: MQQDDDFQNFVATLESFKDLKSGISGSRIKKLTTYALDHIDIESKIISLIIDYSRLCPDSHKLGSLYIIDSIGRAYLDETRSNSNSSSNKPGTCAHAINTLGEVIQELLSDAIAKSNQDHKEKIRMLLDIWDRSGLFQKSYLNAIRSKCFAMDISNNTANTASQQLSLDPKQRSKQILSNLKKSPPLNLNISLPTDLTSTDPAKQQAALFQVIAALQKHFKTLPSHTSVGTVAPPQAHTITEYGSRRERERERERYNSRRNRSRSPPAPFSQPSTGRKDRYPSVAQDQYSIGAPNTTFGTNNHHLYPDELNVSNNPHYRPKPVSYDSTLPPDHIKVYSRTLFIGGVPLNMKEWDLANVLKPFAEVQSVILNNSRKHAFVKVYSRHEAENVLQNFNKDGALPLRTRWGVGFGPRDCCDYQHGYSIIPMHRLTDADKKWSVSAQWGGTSGQPLVTGIVFEEPDIIVGEGVSSKAISQKMPTDSGRNGPRSGKPNKSGSISSISPVPYGNAPLASPPPQQYVQPMMQQPYGYAPNQPLPSQGPAAAAPPVPQQQFDPTAQLNSLMNMLNQQQQQQQQS
B1: the binding result in assay [2] was “binds”.
